Measurements published in the supplement of paper PMC10849652.
The list shows a part of the results.

Amino acid sequences for entries named in this document (tags omitted). A change or cut given only in a name is not applied to a line headed by its entry.
UniProt Q16773: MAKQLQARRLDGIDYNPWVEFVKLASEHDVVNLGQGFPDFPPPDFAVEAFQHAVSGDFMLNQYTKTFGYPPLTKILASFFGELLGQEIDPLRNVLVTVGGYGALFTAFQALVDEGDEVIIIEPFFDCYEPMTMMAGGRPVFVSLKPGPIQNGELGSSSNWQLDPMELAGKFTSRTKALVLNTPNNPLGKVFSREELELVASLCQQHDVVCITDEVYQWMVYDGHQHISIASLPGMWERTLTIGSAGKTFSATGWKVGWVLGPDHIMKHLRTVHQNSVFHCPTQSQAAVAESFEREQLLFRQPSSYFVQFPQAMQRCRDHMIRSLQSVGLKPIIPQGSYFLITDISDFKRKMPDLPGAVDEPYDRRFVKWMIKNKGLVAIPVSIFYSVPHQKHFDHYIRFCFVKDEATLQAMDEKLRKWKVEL
UniProt Q9ULH0: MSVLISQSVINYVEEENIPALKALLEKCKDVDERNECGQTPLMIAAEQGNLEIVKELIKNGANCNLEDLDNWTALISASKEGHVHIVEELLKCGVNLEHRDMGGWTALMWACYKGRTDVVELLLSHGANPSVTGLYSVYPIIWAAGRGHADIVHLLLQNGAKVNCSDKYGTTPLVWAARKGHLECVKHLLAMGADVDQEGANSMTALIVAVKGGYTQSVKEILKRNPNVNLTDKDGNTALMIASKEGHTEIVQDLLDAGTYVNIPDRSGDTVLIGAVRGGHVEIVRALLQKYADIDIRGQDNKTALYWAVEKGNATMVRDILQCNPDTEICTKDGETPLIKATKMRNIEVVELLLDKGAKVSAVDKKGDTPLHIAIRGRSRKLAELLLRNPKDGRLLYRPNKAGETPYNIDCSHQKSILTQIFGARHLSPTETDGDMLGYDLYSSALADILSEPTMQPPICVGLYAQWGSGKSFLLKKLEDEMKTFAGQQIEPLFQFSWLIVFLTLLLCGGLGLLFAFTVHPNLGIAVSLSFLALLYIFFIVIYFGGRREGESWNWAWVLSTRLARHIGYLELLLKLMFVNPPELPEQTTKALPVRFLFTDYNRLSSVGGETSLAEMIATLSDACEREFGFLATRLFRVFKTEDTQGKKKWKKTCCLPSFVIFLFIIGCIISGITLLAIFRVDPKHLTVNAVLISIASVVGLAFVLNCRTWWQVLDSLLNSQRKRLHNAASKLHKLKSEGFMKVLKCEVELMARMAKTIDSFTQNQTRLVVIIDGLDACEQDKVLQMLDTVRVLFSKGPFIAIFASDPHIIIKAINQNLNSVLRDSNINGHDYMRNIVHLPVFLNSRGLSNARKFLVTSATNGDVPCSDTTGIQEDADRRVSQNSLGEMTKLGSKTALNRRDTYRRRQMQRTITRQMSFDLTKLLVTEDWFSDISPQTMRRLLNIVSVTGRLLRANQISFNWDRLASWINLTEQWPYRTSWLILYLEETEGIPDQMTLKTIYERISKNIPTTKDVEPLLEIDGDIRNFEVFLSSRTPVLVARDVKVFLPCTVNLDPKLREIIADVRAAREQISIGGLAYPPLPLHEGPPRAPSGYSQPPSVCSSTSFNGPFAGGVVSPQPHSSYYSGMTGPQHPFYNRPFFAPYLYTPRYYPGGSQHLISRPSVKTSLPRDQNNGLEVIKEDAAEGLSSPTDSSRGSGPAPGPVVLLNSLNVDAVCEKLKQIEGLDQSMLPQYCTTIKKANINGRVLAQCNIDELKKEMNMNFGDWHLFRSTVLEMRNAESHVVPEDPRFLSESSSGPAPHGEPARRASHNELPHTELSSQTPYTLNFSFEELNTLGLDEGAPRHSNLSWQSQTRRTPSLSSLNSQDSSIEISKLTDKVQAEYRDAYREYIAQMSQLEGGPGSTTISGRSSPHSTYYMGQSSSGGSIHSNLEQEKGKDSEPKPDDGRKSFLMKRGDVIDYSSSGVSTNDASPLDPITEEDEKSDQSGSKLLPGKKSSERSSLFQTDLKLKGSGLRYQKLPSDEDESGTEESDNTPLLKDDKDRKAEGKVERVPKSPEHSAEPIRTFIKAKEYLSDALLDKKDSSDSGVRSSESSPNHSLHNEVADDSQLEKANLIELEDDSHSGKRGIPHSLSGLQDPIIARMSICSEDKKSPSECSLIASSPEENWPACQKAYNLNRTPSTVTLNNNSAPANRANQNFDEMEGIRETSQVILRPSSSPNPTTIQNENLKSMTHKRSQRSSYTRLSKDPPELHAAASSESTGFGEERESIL
UniProt O15550, whole entry, looked up: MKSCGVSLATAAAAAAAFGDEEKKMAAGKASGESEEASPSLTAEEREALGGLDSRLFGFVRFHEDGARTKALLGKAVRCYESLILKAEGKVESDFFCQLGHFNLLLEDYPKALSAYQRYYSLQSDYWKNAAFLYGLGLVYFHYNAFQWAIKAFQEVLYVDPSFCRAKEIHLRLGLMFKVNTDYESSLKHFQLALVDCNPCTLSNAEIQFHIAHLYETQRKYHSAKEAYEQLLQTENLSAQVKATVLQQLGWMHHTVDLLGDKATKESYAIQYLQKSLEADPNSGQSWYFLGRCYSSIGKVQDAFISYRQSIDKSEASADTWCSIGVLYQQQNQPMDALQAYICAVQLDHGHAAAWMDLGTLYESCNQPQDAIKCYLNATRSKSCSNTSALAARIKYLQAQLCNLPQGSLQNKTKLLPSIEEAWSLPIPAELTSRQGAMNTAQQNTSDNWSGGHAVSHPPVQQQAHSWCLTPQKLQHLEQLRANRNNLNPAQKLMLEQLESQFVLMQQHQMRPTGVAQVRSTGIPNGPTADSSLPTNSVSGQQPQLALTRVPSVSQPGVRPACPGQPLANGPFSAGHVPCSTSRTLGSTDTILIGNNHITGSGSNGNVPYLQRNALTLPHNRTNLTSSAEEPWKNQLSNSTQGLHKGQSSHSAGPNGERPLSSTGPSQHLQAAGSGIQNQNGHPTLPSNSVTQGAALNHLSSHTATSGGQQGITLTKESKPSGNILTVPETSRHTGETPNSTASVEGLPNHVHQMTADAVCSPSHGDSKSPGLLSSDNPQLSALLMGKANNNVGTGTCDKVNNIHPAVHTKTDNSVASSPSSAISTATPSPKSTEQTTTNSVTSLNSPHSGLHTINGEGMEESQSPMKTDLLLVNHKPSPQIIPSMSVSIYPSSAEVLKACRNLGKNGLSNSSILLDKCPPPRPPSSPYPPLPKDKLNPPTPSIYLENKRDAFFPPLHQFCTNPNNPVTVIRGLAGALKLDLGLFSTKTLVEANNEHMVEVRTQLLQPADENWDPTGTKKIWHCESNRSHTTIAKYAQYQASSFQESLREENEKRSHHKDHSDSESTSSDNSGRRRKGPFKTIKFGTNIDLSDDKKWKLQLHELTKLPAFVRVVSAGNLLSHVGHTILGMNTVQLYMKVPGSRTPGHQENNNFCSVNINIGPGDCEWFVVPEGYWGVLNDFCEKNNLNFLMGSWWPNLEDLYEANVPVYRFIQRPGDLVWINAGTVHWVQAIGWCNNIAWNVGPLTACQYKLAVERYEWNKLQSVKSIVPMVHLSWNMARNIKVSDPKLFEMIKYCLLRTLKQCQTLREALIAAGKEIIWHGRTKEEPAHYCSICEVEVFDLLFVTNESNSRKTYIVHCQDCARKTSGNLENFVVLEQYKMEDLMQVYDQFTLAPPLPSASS
UniProt O60662: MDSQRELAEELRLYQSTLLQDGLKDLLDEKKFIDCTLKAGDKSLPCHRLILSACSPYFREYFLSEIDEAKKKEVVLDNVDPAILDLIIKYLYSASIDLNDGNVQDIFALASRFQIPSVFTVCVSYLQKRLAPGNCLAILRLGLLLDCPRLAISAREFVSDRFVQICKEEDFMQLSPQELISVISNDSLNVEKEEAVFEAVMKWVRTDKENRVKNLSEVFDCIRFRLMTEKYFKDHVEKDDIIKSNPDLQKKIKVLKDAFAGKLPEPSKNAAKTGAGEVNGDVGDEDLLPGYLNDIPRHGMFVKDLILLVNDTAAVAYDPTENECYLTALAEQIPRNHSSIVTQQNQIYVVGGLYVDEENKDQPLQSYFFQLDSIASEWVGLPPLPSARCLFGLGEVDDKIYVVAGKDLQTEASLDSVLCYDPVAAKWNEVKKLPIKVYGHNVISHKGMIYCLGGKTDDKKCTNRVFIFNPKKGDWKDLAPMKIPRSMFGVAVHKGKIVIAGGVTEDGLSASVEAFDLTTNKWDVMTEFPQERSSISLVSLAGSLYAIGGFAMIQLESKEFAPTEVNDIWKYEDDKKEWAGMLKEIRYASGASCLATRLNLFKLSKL
UniProt Q14974, whole entry, looked up: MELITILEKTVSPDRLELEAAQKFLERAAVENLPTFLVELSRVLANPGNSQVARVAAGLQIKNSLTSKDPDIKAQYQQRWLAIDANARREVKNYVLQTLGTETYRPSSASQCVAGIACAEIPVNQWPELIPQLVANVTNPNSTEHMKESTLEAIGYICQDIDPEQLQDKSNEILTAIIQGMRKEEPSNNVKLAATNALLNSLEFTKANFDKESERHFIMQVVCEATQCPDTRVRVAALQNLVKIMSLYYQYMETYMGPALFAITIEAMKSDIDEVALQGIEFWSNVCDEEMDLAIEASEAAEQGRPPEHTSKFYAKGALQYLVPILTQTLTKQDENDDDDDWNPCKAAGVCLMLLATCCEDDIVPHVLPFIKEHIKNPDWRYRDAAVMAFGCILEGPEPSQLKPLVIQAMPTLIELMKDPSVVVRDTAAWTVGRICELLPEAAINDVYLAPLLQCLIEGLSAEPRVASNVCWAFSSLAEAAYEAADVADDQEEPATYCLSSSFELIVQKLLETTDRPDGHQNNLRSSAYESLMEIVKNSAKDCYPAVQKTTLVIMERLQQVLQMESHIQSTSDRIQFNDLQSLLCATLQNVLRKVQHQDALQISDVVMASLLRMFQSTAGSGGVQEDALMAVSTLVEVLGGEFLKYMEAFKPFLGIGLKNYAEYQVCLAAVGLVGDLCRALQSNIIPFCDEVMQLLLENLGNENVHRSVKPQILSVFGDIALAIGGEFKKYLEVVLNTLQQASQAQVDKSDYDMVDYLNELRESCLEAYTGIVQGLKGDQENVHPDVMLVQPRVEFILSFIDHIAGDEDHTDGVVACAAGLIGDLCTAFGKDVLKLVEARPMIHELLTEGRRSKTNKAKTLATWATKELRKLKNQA
UniProt Q9P206: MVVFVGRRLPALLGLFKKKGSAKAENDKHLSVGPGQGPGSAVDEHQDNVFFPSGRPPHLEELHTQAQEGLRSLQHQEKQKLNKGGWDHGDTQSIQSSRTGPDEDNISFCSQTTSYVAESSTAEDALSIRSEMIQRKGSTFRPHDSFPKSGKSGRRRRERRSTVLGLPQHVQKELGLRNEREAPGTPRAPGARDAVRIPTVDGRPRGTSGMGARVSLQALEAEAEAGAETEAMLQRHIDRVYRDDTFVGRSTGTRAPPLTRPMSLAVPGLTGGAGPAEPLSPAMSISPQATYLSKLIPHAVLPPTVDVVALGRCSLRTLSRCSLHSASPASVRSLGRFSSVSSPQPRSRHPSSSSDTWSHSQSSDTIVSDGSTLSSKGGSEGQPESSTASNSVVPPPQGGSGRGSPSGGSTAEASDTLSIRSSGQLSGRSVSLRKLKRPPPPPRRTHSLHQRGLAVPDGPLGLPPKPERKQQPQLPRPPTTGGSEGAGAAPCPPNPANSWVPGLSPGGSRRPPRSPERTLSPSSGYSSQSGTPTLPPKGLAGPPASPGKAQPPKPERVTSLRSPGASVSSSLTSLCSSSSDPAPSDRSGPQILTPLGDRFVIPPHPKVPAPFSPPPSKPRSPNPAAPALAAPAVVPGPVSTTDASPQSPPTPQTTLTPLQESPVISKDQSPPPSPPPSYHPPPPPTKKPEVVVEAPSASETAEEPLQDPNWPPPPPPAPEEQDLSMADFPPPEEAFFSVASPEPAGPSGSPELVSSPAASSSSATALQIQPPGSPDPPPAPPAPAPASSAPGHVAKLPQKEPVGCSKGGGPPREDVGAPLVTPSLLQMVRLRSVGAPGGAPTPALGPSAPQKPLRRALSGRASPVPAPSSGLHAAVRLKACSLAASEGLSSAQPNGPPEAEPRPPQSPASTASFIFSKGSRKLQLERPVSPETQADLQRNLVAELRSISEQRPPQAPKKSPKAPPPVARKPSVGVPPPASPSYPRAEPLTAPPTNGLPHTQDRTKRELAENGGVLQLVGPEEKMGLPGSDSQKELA
UniProt Q13601: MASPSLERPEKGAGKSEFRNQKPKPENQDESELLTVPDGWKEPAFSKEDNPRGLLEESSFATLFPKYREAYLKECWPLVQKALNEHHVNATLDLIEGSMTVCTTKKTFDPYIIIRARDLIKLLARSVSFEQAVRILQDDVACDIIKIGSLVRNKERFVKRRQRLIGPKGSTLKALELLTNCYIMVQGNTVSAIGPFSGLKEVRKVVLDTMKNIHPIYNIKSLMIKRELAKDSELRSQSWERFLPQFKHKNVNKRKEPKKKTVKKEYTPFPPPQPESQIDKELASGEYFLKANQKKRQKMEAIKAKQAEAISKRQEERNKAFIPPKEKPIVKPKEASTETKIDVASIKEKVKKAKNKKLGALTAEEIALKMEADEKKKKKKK

Key:
Assay in all cases: log2 fold change, soluble protein after heating vs DMSO (PISA); higher = thermal stabilisation; K562 lysate, 10 uM; active = over 0.2 and 3.5 SD of the protein, either way, in both replicates (recomputed)
[1] = compound: NCC(=O)Nc1ccc(-n2nc(C(F)(F)F)cc2-c2ccc3c(ccc4ccccc43)c2)cc1
Method in brief: (§1)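 The values are log-two fold changes in thermal stability compared with solvent controls and come from duplicates. They were obtained by TMTpro 16plex LC-MS/MS, with channel sums equalised, on the supernatant after 21,000xg for 90 min. That supernatant came from crude K562 extract at 1 mg/mL protein treated with 10 μM compound for 30 min, heated for 3 min across 48°C-58°C, pooled and brought to 0.5% NP-40 at 4°C.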

[2] = compound: O=C(CCCCCCC(=O)Nc1ccccc1)NO [vorinostat]
Method in brief: as §1

[3] = compound: O=C(O)c1ccc2c(c1)nc(Nc1cccc(Cl)c1)c1ccncc12 [silmitasertib]
Method in brief: as §1

[4] = compound: O=C1NC(=O)C(c2cnc3ccccn23)=C1c1cn2c3c(cc(F)cc13)CN(C(=O)N1CCCCC1)CC2
Method in brief: as §1

[5] = compound: c1cn2cc(-c3ccc4cn[nH]c4c3)nc(Nc3ccc(N4CCOCC4)cc3)c2n1 [entospletinib]
Method in brief: as §1

Measured: log2 fold change

KYAT1 (UniProt Q16773)
inactive: [1] -0.038 | [2] 0.083 | [3] -0.02 | [4] -0.023 | [5] -0.047

KIDINS220 isoform 2 (UniProt Q9ULH0)
inactive: [1] 0.277

KMT2D isoform 3 (UniProt O14686)
inactive: [1] 0 | [2] -0.157 | [3] -0.027 | [4] -0.004 | [5] -0.047

KDM6A (UniProt O15550)
inactive: [1] 0.026 | [3] -0.059 | [4] -0.009 | [5] -0.02
active: [2] -0.299

KLHDC4 (UniProt Q8TBB5)
inactive: [1] -0.022 | [2] -0.086 | [3] -0.029 | [4] 0.005 | [5] 0.009

KLHL41 (UniProt O60662)
inactive: [1] 0.099 | [2] 0.156 | [3] -0.1 | [4] 0.329 | [5] -0.001

KPNB1 (UniProt Q14974)
inactive: [1] 0.04 | [2] 0.028 | [3] -0.006 | [4] 0.018 | [5] 0.004

KIAA1522 isoform 2 (UniProt Q9P206)
inactive: [1] -0.048 | [2] -0.144 | [3] -0.01 | [4] -0.024 | [5] 0.019

KRR1 (UniProt Q13601)
inactive: [1] 0.013 | [2] 0.02 | [3] 0.013 | [4] 0.101 | [5] 0.011
